PubChem BioAssay AID1053209 | Peter MacCallum Cancer Centre, 2014
Shown is a random part of about 1,580 deposited reagents. Over the whole deposit, 207 (13%) were called active. 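Rows are single siRNAs; four siRNAs per gene were tested, a gene counting as confirmed only when at least two agree.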 Entries without a mark were called inactive. Reagents against one gene are numbered here. Further read-outs or replicates are left out here.

- Test: 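Knock-downs that sensitise mouse osteosarcoma cells to doxorubicin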 (follow-up of hits)
- Cell system: mouse primary osteosarcoma cells
- Knock-down reagent: single siRNA against mouse genes, 25 nM (text also states 40 nM)
- Time to read-out: about 120 h (48 h before drug, then 72 h with drug)
- Treatment: doxorubicin 100 nM (about IC30-40), added 48 h after transfection, for 72 h
- Measurement: 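Viability measured by ATP luminescence with and without doxorubicin, each replicate scaled to non-targeting siRNA NT1, averaged over two replicates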
- Scale: viability with doxorubicin, vs NT1: higher = more viable cells under doxorubicin; viability without drug, vs NT1: higher = more viable cells without drug
- Call rule: 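Active when doxorubicin viability is at most 0.7 of NT1 and drug-free viability lies between 0.7 and 1.1, class LC dox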

| target | siRNA no. | combined effect class | viability with doxorubicin, vs NT1 | viability without drug, vs NT1 |
| --- | --- | --- | --- | --- |
| Rnpepl1 (arginyl aminopeptidase (aminopeptidase B)-like 1) | 1 | high viability only with doxorubicin | 1.15 | 1.07 |
| Rnpepl1 (arginyl aminopeptidase (aminopeptidase B)-like 1) | 2 | low viability with and without drug | 0.3 | 0.56 |
| Rnpepl1 (arginyl aminopeptidase (aminopeptidase B)-like 1) | 3 | high viability only without drug | 0.93 | 1.15 |
| Rnpepl1 (arginyl aminopeptidase (aminopeptidase B)-like 1) | 4 | normal viability with and without drug | 1.02 | 0.93 |
| Nat10 (N-acetyltransferase 10) | 1 | normal viability with and without drug | 0.94 | 0.94 |
| Nat10 (N-acetyltransferase 10) | 2 | normal viability with and without drug | 1.03 | 1.05 |
| Nat10 (N-acetyltransferase 10) | 3 | low viability only with doxorubicin; normal without drug (active) | 0.68 | 0.88 |
| Nat10 (N-acetyltransferase 10) | 4 | normal viability with and without drug | 0.82 | 0.84 |
| Rps20 (ribosomal protein S20) | 1 | normal viability with and without drug | 0.85 | 0.92 |
| Rps20 (ribosomal protein S20) | 2 | normal viability with and without drug | 0.83 | 1 |
| Rps20 (ribosomal protein S20) | 3 | low viability with and without drug | 0.44 | 0.58 |
| Rps20 (ribosomal protein S20) | 4 | low viability with and without drug | 0.4 | 0.57 |
| Il13ra1 (interleukin 13 receptor, alpha 1) | 1 | high viability only with doxorubicin | 1.1 | 1.08 |
| Il13ra1 (interleukin 13 receptor, alpha 1) | 2 | normal viability with and without drug | 0.98 | 0.92 |
| Il13ra1 (interleukin 13 receptor, alpha 1) | 3 | normal viability with and without drug | 1.01 | 0.94 |
| Il13ra1 (interleukin 13 receptor, alpha 1) | 4 | normal viability with and without drug | 0.96 | 0.97 |
| Snu13 (SNU13 homolog, small nuclear ribonucleoprotein (U4/U6.U5)) | 1 | low viability with and without drug | 0.15 | 0.48 |
| Snu13 (SNU13 homolog, small nuclear ribonucleoprotein (U4/U6.U5)) | 2 | normal viability with and without drug | 1.03 | 0.91 |
| Snu13 (SNU13 homolog, small nuclear ribonucleoprotein (U4/U6.U5)) | 3 | normal viability with and without drug | 1 | 1 |
| Snu13 (SNU13 homolog, small nuclear ribonucleoprotein (U4/U6.U5)) | 4 | low viability with and without drug | 0.08 | 0.28 |
| Rasgrp1 (RAS guanyl releasing protein 1) | 1 | high viability only without drug | 1.05 | 1.15 |
| Rasgrp1 (RAS guanyl releasing protein 1) | 2 | normal viability with and without drug | 0.99 | 0.93 |
| Rasgrp1 (RAS guanyl releasing protein 1) | 3 | normal viability with and without drug | 0.98 | 1 |
| Rasgrp1 (RAS guanyl releasing protein 1) | 4 | normal viability with and without drug | 0.94 | 1.08 |
| Dtl (denticleless E3 ubiquitin protein ligase) | 1 | normal viability with and without drug | 0.74 | 0.82 |
| Dtl (denticleless E3 ubiquitin protein ligase) | 2 | low viability with and without drug | 0.7 | 0.67 |
| Dtl (denticleless E3 ubiquitin protein ligase) | 3 | normal viability with and without drug | 0.74 | 0.8 |
| Dtl (denticleless E3 ubiquitin protein ligase) | 4 | high viability only without drug | 0.95 | 1.12 |
| Timm22 (translocase of inner mitochondrial membrane 22) | 1 | normal viability with and without drug | 0.91 | 1.04 |
| Timm22 (translocase of inner mitochondrial membrane 22) | 2 | normal viability with and without drug | 0.79 | 0.93 |
| Timm22 (translocase of inner mitochondrial membrane 22) | 3 | normal viability with and without drug | 0.82 | 1.04 |
| Timm22 (translocase of inner mitochondrial membrane 22) | 4 | normal viability with and without drug | 0.8 | 0.96 |
| Kcnk10 (potassium channel, subfamily K, member 10) | 1 | high viability only without drug | 0.97 | 1.19 |
| Kcnk10 (potassium channel, subfamily K, member 10) | 2 | normal viability with and without drug | 0.78 | 0.88 |
| Kcnk10 (potassium channel, subfamily K, member 10) | 3 | normal viability with and without drug | 0.75 | 0.82 |
| Kcnk10 (potassium channel, subfamily K, member 10) | 4 | high viability only with doxorubicin | 1.1 | 0.94 |
| Il3 (interleukin 3) | 1 | normal viability with and without drug | 0.97 | 1 |
| Il3 (interleukin 3) | 2 | high viability only with doxorubicin | 1.14 | 1.05 |
| Il3 (interleukin 3) | 3 | normal viability with and without drug | 1.03 | 0.98 |
| Il3 (interleukin 3) | 4 | high viability only with doxorubicin | 1.16 | 1.04 |
| Adarb2 (adenosine deaminase, RNA-specific, B2) | 1 | high viability only with doxorubicin | 1.14 | 0.98 |
| Adarb2 (adenosine deaminase, RNA-specific, B2) | 2 | normal viability with and without drug | 1.04 | 1.01 |
| Adarb2 (adenosine deaminase, RNA-specific, B2) | 3 | normal viability with and without drug | 1.06 | 0.98 |
| Adarb2 (adenosine deaminase, RNA-specific, B2) | 4 | normal viability with and without drug | 1.04 | 1.02 |
| Vsig1 (V-set and immunoglobulin domain containing 1) | 1 | normal viability with and without drug | 1.02 | 0.82 |
| Vsig1 (V-set and immunoglobulin domain containing 1) | 2 | low viability only with doxorubicin; normal without drug (active) | 0.68 | 0.78 |
| Vsig1 (V-set and immunoglobulin domain containing 1) | 3 | normal viability with and without drug | 1 | 1.02 |
| Vsig1 (V-set and immunoglobulin domain containing 1) | 4 | normal viability with and without drug | 0.88 | 0.9 |
| Eif3k (eukaryotic translation initiation factor 3, subunit K) | 1 | high viability only with doxorubicin | 1.1 | 1.05 |
| Eif3k (eukaryotic translation initiation factor 3, subunit K) | 2 | low viability only with doxorubicin; normal without drug (active) | 0.65 | 0.78 |
| Eif3k (eukaryotic translation initiation factor 3, subunit K) | 3 | low viability only with doxorubicin; normal without drug (active) | 0.37 | 0.8 |
| Eif3k (eukaryotic translation initiation factor 3, subunit K) | 4 | normal viability with and without drug | 1 | 0.99 |
| Nup155 (nucleoporin 155) | 1 | low viability only with doxorubicin; normal without drug (active) | 0.58 | 0.82 |
| Nup155 (nucleoporin 155) | 2 | low viability only with doxorubicin; normal without drug (active) | 0.61 | 0.93 |
| Nup155 (nucleoporin 155) | 3 | low viability only with doxorubicin; normal without drug (active) | 0.55 | 0.82 |
| Nup155 (nucleoporin 155) | 4 | normal viability with and without drug | 1.05 | 1 |
| Adar (adenosine deaminase, RNA-specific) | 1 | high viability only with doxorubicin | 1.1 | 1.01 |
| Adar (adenosine deaminase, RNA-specific) | 2 | normal viability with and without drug | 0.73 | 0.9 |
| Adar (adenosine deaminase, RNA-specific) | 3 | low viability only with doxorubicin; normal without drug (active) | 0.64 | 0.9 |
| Adar (adenosine deaminase, RNA-specific) | 4 | normal viability with and without drug | 0.85 | 1.04 |
